Measurements: the supplement of paper PMC10849652
Some of the results follow.

By UniProt entry, the sequences of proteins in these tests, tags left out. Where a name states a change or a piece, a line headed by the entry shows the natural chain unless it says otherwise.
UniProt Q08945, whole entry, looked up: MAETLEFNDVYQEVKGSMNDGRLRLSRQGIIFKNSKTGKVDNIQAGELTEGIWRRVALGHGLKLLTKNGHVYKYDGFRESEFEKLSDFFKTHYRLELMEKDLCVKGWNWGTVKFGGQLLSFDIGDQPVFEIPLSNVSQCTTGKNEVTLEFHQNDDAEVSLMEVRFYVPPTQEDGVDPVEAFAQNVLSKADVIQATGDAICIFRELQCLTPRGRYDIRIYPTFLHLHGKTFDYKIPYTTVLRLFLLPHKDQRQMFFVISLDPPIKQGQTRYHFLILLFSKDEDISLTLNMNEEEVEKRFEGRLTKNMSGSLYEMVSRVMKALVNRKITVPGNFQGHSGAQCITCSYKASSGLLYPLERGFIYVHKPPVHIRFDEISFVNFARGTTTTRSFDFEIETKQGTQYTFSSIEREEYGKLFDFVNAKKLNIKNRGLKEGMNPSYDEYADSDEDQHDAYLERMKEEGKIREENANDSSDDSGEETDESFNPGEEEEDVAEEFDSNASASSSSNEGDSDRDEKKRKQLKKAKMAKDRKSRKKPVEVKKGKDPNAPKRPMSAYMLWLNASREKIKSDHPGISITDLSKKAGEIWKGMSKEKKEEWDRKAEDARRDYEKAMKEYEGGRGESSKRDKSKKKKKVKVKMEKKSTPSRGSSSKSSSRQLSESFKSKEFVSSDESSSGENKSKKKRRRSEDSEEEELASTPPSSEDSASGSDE
UniProt Q9HBM1: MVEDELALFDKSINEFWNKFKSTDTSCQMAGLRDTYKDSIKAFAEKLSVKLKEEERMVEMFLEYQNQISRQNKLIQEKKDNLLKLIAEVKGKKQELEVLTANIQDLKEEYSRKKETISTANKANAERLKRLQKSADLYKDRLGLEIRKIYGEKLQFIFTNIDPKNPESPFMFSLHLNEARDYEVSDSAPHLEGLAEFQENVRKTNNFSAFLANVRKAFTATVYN
UniProt Q14849, whole entry, looked up: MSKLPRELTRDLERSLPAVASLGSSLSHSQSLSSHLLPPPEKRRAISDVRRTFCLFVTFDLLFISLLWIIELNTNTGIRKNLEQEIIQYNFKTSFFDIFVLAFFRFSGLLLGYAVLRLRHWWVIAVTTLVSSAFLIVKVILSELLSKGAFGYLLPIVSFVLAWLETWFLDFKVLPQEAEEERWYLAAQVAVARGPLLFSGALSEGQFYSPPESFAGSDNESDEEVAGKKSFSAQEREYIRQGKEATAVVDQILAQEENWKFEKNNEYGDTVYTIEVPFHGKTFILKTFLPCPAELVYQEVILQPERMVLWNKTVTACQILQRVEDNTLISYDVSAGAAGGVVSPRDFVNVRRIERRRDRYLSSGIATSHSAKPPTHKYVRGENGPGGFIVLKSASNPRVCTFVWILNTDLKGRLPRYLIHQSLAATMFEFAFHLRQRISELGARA
UniProt P37108: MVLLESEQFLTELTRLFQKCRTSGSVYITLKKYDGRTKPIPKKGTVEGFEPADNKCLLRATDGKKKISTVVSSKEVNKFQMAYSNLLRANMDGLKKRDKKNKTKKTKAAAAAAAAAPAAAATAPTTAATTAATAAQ
UniProt Q96SB4, whole entry, looked up: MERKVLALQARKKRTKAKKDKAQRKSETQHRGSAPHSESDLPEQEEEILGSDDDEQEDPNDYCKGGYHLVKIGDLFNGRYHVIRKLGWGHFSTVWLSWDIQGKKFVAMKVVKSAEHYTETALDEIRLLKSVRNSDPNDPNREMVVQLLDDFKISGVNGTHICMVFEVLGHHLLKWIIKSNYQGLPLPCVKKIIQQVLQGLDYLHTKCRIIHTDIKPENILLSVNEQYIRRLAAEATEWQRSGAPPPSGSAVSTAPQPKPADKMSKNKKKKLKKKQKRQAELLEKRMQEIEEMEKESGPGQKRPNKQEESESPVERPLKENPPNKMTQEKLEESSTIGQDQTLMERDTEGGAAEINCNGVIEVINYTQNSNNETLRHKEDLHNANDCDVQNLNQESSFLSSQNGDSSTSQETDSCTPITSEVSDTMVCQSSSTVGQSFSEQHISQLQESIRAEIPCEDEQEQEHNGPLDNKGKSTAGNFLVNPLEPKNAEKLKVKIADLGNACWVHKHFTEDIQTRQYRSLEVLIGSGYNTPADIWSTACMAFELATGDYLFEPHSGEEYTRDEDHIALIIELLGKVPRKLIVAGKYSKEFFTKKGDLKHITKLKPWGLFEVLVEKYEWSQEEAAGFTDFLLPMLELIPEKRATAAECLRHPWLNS
UniProt Q9NP77: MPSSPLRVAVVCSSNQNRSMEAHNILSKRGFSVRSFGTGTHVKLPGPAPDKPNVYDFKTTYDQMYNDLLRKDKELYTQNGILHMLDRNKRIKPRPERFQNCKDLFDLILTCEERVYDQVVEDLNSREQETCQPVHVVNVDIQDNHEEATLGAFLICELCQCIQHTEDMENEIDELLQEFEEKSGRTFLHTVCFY
UniProt Q8N3U4: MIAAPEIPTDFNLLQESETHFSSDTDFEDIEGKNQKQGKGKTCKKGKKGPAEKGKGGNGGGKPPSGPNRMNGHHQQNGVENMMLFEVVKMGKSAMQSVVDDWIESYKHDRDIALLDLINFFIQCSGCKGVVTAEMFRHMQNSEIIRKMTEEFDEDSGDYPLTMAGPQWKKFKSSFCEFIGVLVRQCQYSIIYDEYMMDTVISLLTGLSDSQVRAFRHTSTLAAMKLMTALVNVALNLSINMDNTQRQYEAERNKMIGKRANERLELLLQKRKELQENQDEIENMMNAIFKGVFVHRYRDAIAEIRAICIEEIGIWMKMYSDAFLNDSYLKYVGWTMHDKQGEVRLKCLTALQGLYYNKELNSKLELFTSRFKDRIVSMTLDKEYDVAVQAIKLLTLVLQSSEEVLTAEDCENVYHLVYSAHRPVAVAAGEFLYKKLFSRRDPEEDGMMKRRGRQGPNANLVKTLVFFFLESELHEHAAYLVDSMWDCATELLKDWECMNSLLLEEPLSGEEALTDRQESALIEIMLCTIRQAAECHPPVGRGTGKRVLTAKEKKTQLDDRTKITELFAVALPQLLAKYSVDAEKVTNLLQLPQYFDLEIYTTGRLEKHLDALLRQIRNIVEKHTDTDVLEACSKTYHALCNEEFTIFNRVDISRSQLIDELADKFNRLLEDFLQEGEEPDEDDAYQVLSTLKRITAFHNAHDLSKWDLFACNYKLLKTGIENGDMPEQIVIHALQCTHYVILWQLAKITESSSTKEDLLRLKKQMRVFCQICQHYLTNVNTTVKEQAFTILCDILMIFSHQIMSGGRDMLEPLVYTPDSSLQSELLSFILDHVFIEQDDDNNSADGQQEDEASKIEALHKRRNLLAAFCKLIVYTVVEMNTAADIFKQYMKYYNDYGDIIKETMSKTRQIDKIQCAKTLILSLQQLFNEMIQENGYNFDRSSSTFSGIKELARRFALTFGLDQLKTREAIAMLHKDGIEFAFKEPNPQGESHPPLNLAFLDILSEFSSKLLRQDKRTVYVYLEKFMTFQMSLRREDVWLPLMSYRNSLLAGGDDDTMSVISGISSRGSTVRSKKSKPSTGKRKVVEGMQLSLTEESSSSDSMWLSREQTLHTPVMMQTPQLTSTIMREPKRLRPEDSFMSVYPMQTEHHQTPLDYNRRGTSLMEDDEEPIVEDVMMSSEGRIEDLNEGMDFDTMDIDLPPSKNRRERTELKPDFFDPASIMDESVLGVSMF
UniProt Q9BXP5: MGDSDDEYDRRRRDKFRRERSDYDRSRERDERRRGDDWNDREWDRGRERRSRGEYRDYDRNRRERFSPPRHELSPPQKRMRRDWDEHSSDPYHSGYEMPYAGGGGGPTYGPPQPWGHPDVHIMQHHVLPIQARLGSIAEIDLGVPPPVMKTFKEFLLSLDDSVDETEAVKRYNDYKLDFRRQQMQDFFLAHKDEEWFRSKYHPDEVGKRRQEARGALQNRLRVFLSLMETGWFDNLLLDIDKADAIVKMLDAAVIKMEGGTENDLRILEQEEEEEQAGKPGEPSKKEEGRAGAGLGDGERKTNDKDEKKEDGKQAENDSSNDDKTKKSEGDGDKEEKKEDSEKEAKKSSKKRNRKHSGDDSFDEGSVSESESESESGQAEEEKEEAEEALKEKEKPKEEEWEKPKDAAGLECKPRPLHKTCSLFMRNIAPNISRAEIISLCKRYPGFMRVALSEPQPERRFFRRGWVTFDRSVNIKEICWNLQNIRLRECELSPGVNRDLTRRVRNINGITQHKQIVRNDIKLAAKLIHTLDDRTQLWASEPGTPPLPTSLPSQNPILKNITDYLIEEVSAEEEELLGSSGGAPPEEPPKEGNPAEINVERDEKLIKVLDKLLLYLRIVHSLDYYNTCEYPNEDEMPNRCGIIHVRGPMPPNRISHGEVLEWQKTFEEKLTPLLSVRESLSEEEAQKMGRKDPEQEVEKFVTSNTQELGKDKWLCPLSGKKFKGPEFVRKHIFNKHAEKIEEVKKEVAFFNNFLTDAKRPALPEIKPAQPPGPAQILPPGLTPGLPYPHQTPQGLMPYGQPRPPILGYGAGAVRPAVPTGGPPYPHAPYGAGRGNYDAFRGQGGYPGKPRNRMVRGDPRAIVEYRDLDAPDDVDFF
UniProt Q9Y657, whole entry, looked up: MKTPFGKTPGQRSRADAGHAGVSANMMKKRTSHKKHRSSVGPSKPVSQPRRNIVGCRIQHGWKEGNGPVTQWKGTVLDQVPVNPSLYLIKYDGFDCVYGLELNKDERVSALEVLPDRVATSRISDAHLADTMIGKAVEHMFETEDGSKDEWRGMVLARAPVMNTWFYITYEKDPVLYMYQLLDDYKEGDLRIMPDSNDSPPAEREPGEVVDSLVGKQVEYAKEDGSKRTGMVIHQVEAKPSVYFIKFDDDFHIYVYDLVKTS
UniProt Q9NQZ5: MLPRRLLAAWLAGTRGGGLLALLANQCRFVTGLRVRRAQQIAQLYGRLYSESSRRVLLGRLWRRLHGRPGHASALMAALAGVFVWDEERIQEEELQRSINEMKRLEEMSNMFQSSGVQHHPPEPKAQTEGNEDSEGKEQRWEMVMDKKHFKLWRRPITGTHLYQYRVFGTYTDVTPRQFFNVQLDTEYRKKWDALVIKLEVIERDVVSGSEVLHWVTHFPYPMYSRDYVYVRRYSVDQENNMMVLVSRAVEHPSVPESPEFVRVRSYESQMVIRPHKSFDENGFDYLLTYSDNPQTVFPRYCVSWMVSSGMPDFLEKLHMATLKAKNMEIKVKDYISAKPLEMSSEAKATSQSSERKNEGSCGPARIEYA
UniProt O95793: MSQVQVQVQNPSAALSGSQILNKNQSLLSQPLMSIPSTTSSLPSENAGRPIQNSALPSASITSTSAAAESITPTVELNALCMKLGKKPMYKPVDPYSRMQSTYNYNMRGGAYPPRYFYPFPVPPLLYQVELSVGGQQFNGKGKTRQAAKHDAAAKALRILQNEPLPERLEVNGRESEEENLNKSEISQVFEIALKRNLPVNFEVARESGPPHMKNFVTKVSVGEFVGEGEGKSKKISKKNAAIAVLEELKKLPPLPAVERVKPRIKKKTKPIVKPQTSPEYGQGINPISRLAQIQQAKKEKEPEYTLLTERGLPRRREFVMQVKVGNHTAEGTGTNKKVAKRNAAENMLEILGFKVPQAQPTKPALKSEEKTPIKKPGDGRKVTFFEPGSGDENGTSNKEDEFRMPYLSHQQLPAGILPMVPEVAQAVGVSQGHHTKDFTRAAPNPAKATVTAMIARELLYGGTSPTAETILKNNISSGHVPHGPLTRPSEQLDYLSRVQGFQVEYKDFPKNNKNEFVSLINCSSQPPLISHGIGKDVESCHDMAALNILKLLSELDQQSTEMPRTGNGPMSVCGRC
UniProt P09132: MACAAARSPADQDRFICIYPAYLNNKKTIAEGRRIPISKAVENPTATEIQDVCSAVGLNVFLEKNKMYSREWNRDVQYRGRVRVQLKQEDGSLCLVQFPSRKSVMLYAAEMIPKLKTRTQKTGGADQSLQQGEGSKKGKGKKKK
UniProt Q15005: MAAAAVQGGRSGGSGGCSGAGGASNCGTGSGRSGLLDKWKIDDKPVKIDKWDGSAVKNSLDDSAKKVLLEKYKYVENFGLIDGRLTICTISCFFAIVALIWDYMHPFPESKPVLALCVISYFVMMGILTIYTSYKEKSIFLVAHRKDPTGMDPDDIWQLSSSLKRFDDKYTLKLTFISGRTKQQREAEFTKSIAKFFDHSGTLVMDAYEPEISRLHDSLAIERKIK
UniProt Q9UNL2: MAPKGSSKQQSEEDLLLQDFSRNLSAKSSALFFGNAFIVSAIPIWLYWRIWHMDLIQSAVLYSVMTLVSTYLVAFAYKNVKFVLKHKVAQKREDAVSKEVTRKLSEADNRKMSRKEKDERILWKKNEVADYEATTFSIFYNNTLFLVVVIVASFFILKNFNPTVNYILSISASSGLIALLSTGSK

How the values were obtained:
Assay in all cases: log2 fold change, soluble protein after heating vs DMSO (PISA); higher = thermal stabilisation; K562 lysate, 10 uM; active = over 0.2 and 3.5 SD of the protein, either way, in both replicates (recomputed)
lapatinib = compound: CS(=O)(=O)CCNCc1ccc(-c2ccc3ncnc(Nc4ccc(OCc5cccc(F)c5)c(Cl)c4)c3c2)o1 [lapatinib]
Method in brief: (§1)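 Quantification was by TMTpro 16plex LC-MS/MS with equalised channel sums, applied to the supernatant after 21,000xg for 90 min. Samples were crude K562 extract at 1 mg/mL protein in PBS pH 7.4 with 1 mM MgCl2, treated with 10 μM compound for 30 min, heated for 3 min across 48°C-58°C, pooled and brought to 0.5% NP-40 at 4°C. Values are log-two fold changes in thermal stability relative to solvent controls, from duplicates.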

pictilisib = compound: CS(=O)(=O)N1CCN(Cc2cc3nc(-c4cccc5[nH]ncc45)nc(N4CCOCC4)c3s2)CC1 [pictilisib]
Method in brief: as §1

crizotinib = compound: C[C@@H](Oc1cc(-c2cnn(C3CCNCC3)c2)cnc1N)c1c(Cl)ccc(F)c1Cl [crizotinib]
Method in brief: as §1

[1] = compound: C[C@H](C1=CC=C(C=C1)C(=O)NC2=C3C=CNC3=NC=C2)N
Method in brief: as §1

duvelisib = compound: C[C@H](Nc1ncnc2nc[nH]c12)c1cc2cccc(Cl)c2c(=O)n1-c1ccccc1 [duvelisib]
Method in brief: as §1

gandotinib = compound: Cc1cc(Nc2cc(CN3CCOCC3)c3nc(C)c(Cc4ccc(Cl)cc4F)n3n2)n[nH]1 [gandotinib]
Method in brief: as §1

tozasertib = compound: Cc1cc(Nc2cc(N3CCN(C)CC3)nc(Sc3ccc(NC(=O)C4CC4)cc3)n2)n[nH]1 [tozasertib]
Method in brief: as §1

doramapimod = compound: Cc1ccc(-n2nc(C(C)(C)C)cc2NC(=O)Nc2ccc(OCCN3CCOCC3)c3ccccc23)cc1 [doramapimod]
Method in brief: as §1

bafetinib = compound: Cc1ccc(NC(=O)c2ccc(CN3CC[C@H](N(C)C)C3)c(C(F)(F)F)c2)cc1Nc1nccc(-c2cncnc2)n1 [bafetinib]
Method in brief: as §1

[2] = compound: Cc1cccc(CC(=O)N2CCc3c2ccc(-c2cn(C)c4ncnc(N)c24)c3F)n1
Method in brief: as §1

nilotinib = compound: Cc1cn(-c2cc(NC(=O)c3ccc(C)c(Nc4nccc(-c5cccnc5)n4)c3)cc(C(F)(F)F)c2)cn1 [nilotinib]
Method in brief: as §1

[3] = compound: Cc1nc(Nc2n[nH]c3c2CN(C(=O)N[C@H](CN(C)C)c2ccccc2)C3(C)C)c2sccc2n1
Method in brief: as §1

dasatinib = compound: Cc1nc(Nc2ncc(C(=O)Nc3c(C)cccc3Cl)s2)cc(N2CCN(CCO)CC2)n1 [dasatinib]
Method in brief: as §1

[4] = compound: Cc1ncc(-c2ccnc(Nc3ccc(S(C)(=O)=O)cc3)n2)n1C(C)C
Method in brief: as §1

[5] = compound: Cn1cc(-c2ccc3c(c2)CCN3C(=O)Cc2cccc(C(F)(F)F)c2)c2c(N)ncnc21
Method in brief: as §1

quisinostat = compound: Cn1cc(CNCC2CCN(c3ncc(C(=O)NO)cn3)CC2)c2ccccc21 [quisinostat]
Method in brief: as §1

tipifarnib = compound: Cn1cncc1[C@@](N)(c1ccc(Cl)cc1)c1ccc2c(c1)c(-c1cccc(Cl)c1)cc(=O)n2C [tipifarnib]
Method in brief: as §1

[6] = compound: NC(=O)Nc1cc(-c2cccc(F)c2)sc1C(=O)N[C@H]1CCCNC1
Method in brief: as §1

[7] = compound: NC(=O)c1cnc(N[C@@H]2CCCC[C@@H]2N)nc1Nc1cccc(-n2nccn2)c1
Method in brief: as §1

[8] = compound: NC1(c2ccc(-c3nc4ccn5c(=O)[nH]nc5c4cc3-c3ccccc3)cc2)CCC1
Method in brief: as §1

Target | log2 fold change (lapatinib) | log2 fold change (pictilisib) | log2 fold change (crizotinib) | log2 fold change [1] | log2 fold change (duvelisib) | log2 fold change (gandotinib) | log2 fold change (tozasertib) | log2 fold change (doramapimod) | log2 fold change (bafetinib) | log2 fold change [2] | log2 fold change (nilotinib) | log2 fold change [3] | log2 fold change (dasatinib) | log2 fold change [4] | log2 fold change [5] | log2 fold change (quisinostat) | log2 fold change (tipifarnib) | log2 fold change [6] | log2 fold change [7] | log2 fold change [8]
SSRP1 (UniProt Q08945) | inactive: -0.007 | inactive: -0.007 | inactive: 0.008 | inactive: -0.006 | inactive: 0.008 | inactive: -0.035 | inactive: 0.002 | inactive: 0.039 | inactive: -0.026 | inactive: 0.006 | inactive: 0.045 | inactive: -0.004 | inactive: -0.002 | inactive: -0.006 | inactive: 0.028 | inactive: 0.013 | inactive: -0.03 | inactive: 0.018 | inactive: 0 | inactive: 0.025
SPC25 (UniProt Q9HBM1) | inactive: 0.029 | inactive: 0.029 | inactive: 0.001 | inactive: -0.01 | inactive: -0.021 | inactive: -0.007 | inactive: -0.013 | inactive: -0.005 | inactive: -0.031 | inactive: 0.011 | inactive: 0.042 | inactive: -0.02 | inactive: 0.002 | inactive: 0.03 | inactive: 0.046 | inactive: -0.019 | inactive: 0 | inactive: -0.01 | inactive: 0.002 | inactive: 0
STARD3 isoform 3 (UniProt Q14849) | inactive: -0.094 | inactive: -0.087 | inactive: -0.024 | inactive: -0.072 | inactive: -0.005 | inactive: 0.027 | inactive: -0.075 | inactive: 0.021 | inactive: -0.209 | inactive: 0.084 | inactive: -0.06 | inactive: -0.008 | active: 0.272 | inactive: 0.063 | inactive: 0.02 | inactive: 0.027 | inactive: -0.047 | inactive: -0.039 | inactive: 0.015 | inactive: 0.026
SRP14 (UniProt P37108) | inactive: -0.006 | inactive: 0.019 | inactive: 0.018 | inactive: -0.079 | inactive: 0.007 | inactive: 0.012 | inactive: -0.015 | inactive: 0.013 | inactive: 0.02 | inactive: 0.034 | inactive: 0 | inactive: 0.011 | inactive: -0.004 | inactive: -0.045 | inactive: -0.001 | inactive: -0.016 | inactive: 0.016 | inactive: -0.009 | inactive: 0.011 | inactive: -0.001
SPG7 (UniProt Q9UQ90) | inactive: -0.092 | inactive: 0.032 | inactive: -0.044 | inactive: 0.005 | inactive: 0.037 | inactive: -0.122 | inactive: 0.071 | inactive: -0.008 | inactive: -0.055 | inactive: -0.036 | inactive: -0.004 | inactive: -0.065 | inactive: -0.098 | inactive: 0.023 | inactive: 0.015 | inactive: 0.08 | inactive: -0.158 | inactive: 0.054 | inactive: -0.118 | inactive: -0.027
SRPK1 (UniProt Q96SB4) | inactive: -0.006 | inactive: 0.008 | inactive: -0.089 | inactive: 0.1 | inactive: 0.025 | inactive: 0.17 | inactive: -0.016 | inactive: 0.233 | inactive: -0.028 | inactive: -0.054 | inactive: -0.002 | inactive: 0.069 | inactive: -0.01 | inactive: -0.03 | inactive: 0.017 | inactive: -0.108 | inactive: -0.03 | active: 0.283 | inactive: -0.021 | inactive: -0.069
SSU72 (UniProt Q9NP77) | inactive: -0.02 | inactive: 0.008 | inactive: -0.042 | active: -0.288 | inactive: -0.004 | inactive: 0.134 | inactive: -0.074 | inactive: 0.057 | inactive: -0.052 | inactive: 0.166 | inactive: 0.031 | inactive: -0.007 | inactive: -0.008 | inactive: -0.028 | inactive: 0.037 | inactive: -0.002 | inactive: 0.02 | inactive: -0.021 | inactive: -0.013 | inactive: 0.041
STAG2 isoform 2 (UniProt Q8N3U4) | inactive: 0.005 | inactive: 0.004 | inactive: 0.019 | inactive: 0.011 | inactive: 0.018 | inactive: -0.007 | inactive: -0.009 | inactive: 0.03 | inactive: -0.065 | inactive: -0.018 | inactive: -0.036 | inactive: 0.026 | inactive: -0.018 | inactive: 0.002 | inactive: 0.024 | inactive: -0.009 | inactive: 0.007 | inactive: -0.007 | inactive: -0.001 | inactive: -0.023
SPTA1 (UniProt P02549) | inactive: -0.015 | inactive: -0.017 | inactive: -0.043 | inactive: -0.01 | inactive: -0.019 | inactive: -0.05 | inactive: 0.026 | inactive: -0.009 | inactive: -0.047 | inactive: 0.03 | inactive: -0.009 | inactive: 0.01 | inactive: -0.042 | inactive: 0.012 | inactive: 0.02 | inactive: -0.012 | inactive: 0 | inactive: 0.045 | inactive: 0.013 | inactive: -0.036
SRRT (UniProt Q9BXP5) | inactive: 0.005 | inactive: -0.029 | inactive: -0.055 | inactive: 0.059 | inactive: -0.007 | inactive: -0.072 | inactive: 0.032 | inactive: 0.066 | inactive: -0.023 | inactive: -0.018 | inactive: -0.013 | inactive: -0.028 | inactive: -0.087 | inactive: -0.005 | inactive: 0.026 | inactive: -0.058 | inactive: 0.013 | inactive: 0.058 | inactive: 0.016 | inactive: -0.023
SPIN1 (UniProt Q9Y657) | inactive: -0.002 | inactive: -0.008 | inactive: -0.115 | inactive: -0.012 | inactive: 0.081 | inactive: 0.041 | inactive: -0.005 | inactive: 0.097 | inactive: 0.004 | inactive: 0.049 | inactive: -0.063 | inactive: 0.103 | inactive: 0.035 | inactive: -0.115 | inactive: -0.037 | inactive: -0.063 | inactive: -0.101 | inactive: -0.13 | inactive: -0.135 | inactive: -0.019
STARD7 (UniProt Q9NQZ5) | inactive: -0.023 | inactive: 0.025 | inactive: -0.096 | inactive: 0.023 | inactive: 0.031 | inactive: -0.024 | inactive: 0.025 | inactive: -0.017 | inactive: -0.084 | inactive: -0.037 | inactive: 0.007 | inactive: 0.058 | inactive: 0.048 | inactive: 0.022 | inactive: -0.054 | inactive: -0.104 | inactive: 0.013 | inactive: 0 | inactive: 0.029 | inactive: -0.018
STAU1 (UniProt O95793) | inactive: -0.018 | inactive: 0.03 | inactive: 0.005 | active: 0.27 | inactive: 0.019 | inactive: -0.086 | inactive: 0.014 | inactive: 0.056 | inactive: -0.089 | inactive: -0.062 | inactive: -0.008 | inactive: -0.024 | inactive: -0.004 | inactive: -0.002 | inactive: 0.007 | inactive: 0.003 | inactive: -0.009 | inactive: 0.037 | inactive: 0.001 | inactive: 0.005
SRP19 (UniProt P09132) | inactive: 0.011 | inactive: 0.035 | inactive: -0.073 | inactive: 0.019 | inactive: 0.036 | inactive: -0.036 | inactive: -0.035 | inactive: 0.023 | inactive: 0.085 | inactive: 0.057 | inactive: 0.016 | inactive: -0.018 | inactive: -0.061 | inactive: -0.01 | inactive: 0.017 | inactive: -0.032 | inactive: -0.066 | inactive: 0.052 | inactive: -0.01 | inactive: -0.035
SPCS2 (UniProt Q15005) | inactive: -0.024 | inactive: -0.003 | inactive: 0.002 | inactive: 0.106 | inactive: -0.025 | inactive: -0.182 | inactive: 0.055 | inactive: -0.025 | inactive: 0.037 | inactive: -0.119 | inactive: -0.018 | inactive: -0.008 | inactive: -0.021 | inactive: -0.016 | inactive: 0.026 | inactive: -0.028 | inactive: -0.025 | inactive: -0.023 | inactive: 0.031 | inactive: -0.021
SSR3 isoform 2 (UniProt Q9UNL2) | inactive: -0.008 | inactive: 0.01 | inactive: -0.008 | inactive: 0.237 | inactive: 0.077 | inactive: -0.082 | inactive: 0.014 | inactive: 0.037 | inactive: -0.014 | inactive: -0.276 | inactive: 0.009 | inactive: -0.045 | inactive: 0.043 | inactive: -0.014 | inactive: -0.044 | inactive: -0.021 | inactive: 0.038 | inactive: 0.029 | inactive: 0.01 | inactive: -0.029

Reformatted: entries from further up
Target,log2 fold change (lapatinib),log2 fold change (pictilisib),log2 fold change (crizotinib),log2 fold change [1],log2 fold change (duvelisib),log2 fold change (gandotinib),log2 fold change (tozasertib),log2 fold change (doramapimod),log2 fold change (bafetinib),log2 fold change [2],log2 fold change (nilotinib),log2 fold change [3],log2 fold change (dasatinib),log2 fold change [4],log2 fold change [5],log2 fold change (quisinostat),log2 fold change (tipifarnib),log2 fold change [6],log2 fold change [7],log2 fold change [8]
STARD3 isoform 3 (UniProt Q14849),inactive: -0.094,inactive: -0.087,inactive: -0.024,inactive: -0.072,inactive: -0.005,inactive: 0.027,inactive: -0.075,inactive: 0.021,inactive: -0.209,inactive: 0.084,inactive: -0.06,inactive: -0.008,active: 0.272,inactive: 0.063,inactive: 0.02,inactive: 0.027,inactive: -0.047,inactive: -0.039,inactive: 0.015,inactive: 0.026
SRP19 (UniProt P09132),inactive: 0.011,inactive: 0.035,inactive: -0.073,inactive: 0.019,inactive: 0.036,inactive: -0.036,inactive: -0.035,inactive: 0.023,inactive: 0.085,inactive: 0.057,inactive: 0.016,inactive: -0.018,inactive: -0.061,inactive: -0.01,inactive: 0.017,inactive: -0.032,inactive: -0.066,inactive: 0.052,inactive: -0.01,inactive: -0.035
